Measured values as given in PubChem BioAssay AID2551 (National Center for Advancing Translational Sciences (NCATS), 2010).
About 17,000 (5.5%) of roughly 310,000 compounds were called active. Inconclusive means that the source gave no clear call. Such entries were picked first, then a sample of the others. Calls come from the whole dose curve; as a rule, active = well fitted inhibition curve with a large enough effect; inconclusive = small, poorly fitted or top-dose-only effect, or effect the other way; inactive = no such curve, though single readings can be large or run the other way. Potencies of inconclusive entries are doubtful fits and often do not repeat.

Amino acid sequences for entries named in this document (tags omitted). A change or cut given only in a name is not applied to a line headed by its entry.
UniProt P51450: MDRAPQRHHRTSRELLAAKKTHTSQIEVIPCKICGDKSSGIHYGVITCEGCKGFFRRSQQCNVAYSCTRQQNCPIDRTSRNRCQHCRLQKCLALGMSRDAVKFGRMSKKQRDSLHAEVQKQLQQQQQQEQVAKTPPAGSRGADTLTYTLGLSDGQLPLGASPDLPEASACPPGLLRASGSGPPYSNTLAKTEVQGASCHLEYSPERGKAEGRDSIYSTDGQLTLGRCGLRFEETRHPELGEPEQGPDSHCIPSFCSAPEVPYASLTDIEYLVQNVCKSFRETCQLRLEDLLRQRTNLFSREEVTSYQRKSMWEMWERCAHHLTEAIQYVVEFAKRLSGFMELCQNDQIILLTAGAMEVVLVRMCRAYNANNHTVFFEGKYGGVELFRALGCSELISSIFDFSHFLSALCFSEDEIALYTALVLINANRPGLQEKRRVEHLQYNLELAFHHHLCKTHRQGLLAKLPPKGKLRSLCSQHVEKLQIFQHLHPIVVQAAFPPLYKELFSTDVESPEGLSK

What follows are molecules tested against Nuclear receptor ROR-gamma (Mus musculus) (UniProt P51450) (assay: qHTS for inhibitors of ROR gamma transcriptional activity). Conditions: Drosophila S2 Gal4-RORgamma UAS-luciferase reporter, 20 h; series mostly up to 53.6 µM.
In short: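 A Gal4/UAS one-hybrid system in insect cells: metallothionein-promoter Gal4–ROR gamma fusion plus Photinus luciferase reporter. Copper sulfate 700 uM final, 20 hr ambient incubation, luminescent detection after 10 min with reagent.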
Note: nearly all actives have a fitted effect of over 60% in size.
Potency is the fitted concentration of half-maximal effect.

SMILES	Potency
COc1cc(/C=C2/SC(=S)NC2=O)ccc1OS(=O)(=O)c1ccc(C)cc1	inconclusive: 35.5 µM [inhibitor, single point]
CCCCCCCCOC(=O)CCc1c(C)[nH]c(=S)[nH]c1=O	inconclusive: 10 µM [inhibitor, partial curve]
CCOc1ccc(C(=O)NC(=S)Nc2ccccc2N2CCOCC2)cc1Br	active: 3.16 µM
Cc1ccc(C)c(N2CCN(C(=O)CCC(=O)N3CCOc4ccc(Cl)cc43)CC2)c1	inconclusive: 17.8 µM [activator, single point]
O=C(NCCNc1ccc([N+](=O)[O-])cc1)c1cccc(Br)c1	inconclusive: 10 µM [activator, partial curve]
CCc1cc(-c2n[nH]c(C)c2Oc2ccc(C(C)C)cc2)c(O)cc1O	active: 7.08 µM
CC(=O)/C(=N/Nc1ccc(C)cc1)Sc1nnc(CCc2ccccc2)n1-c1ccccc1	inconclusive: 11.2 µM [inhibitor, single point]
CC(C)/C=N/Nc1nc(-c2ccc(Br)cc2)cs1	inconclusive: 11.2 µM [inhibitor, single point]
CCN(CC)S(=O)(=O)c1cccc(NC(=O)c2ccc(-n3nc(C)cc3C)cc2)c1	inconclusive: 10 µM [activator, partial curve]
C/C=C/c1ccc(OCCn2nnc3ccccc32)c(OC)c1	inconclusive: 12.6 µM [activator, partial curve]
O=C(O)c1cc(N/N=C/C(Cl)=C/c2ccccc2)ccc1Cl	inconclusive: 15.8 µM [inhibitor, single point]
Cc1ccc(CCNC(=O)C2CCCN(S(=O)(=O)c3cccs3)C2)cc1 (stereo not drawn)	inactive
O=C(CCn1c(=O)oc2cc(Cl)ccc21)Nc1ccc(O)cc1	inconclusive: 35.5 µM [inhibitor, single point]
COc1ccc(/C=N/N=C2/NC(=O)C(CC(=O)O)S2)cc1OCc1ccc(Cl)cc1Cl (stereo not drawn)	inconclusive: 35.5 µM [activator, single point]
O=C1COc2ccc(S(=O)(=O)N3CCc4ccccc43)cc2N1	inconclusive: 15.8 µM [activator, partial curve]
COc1ccc(C(=O)/C=C/Sc2nc3ccccc3o2)cc1	inconclusive: 7.94 µM [inhibitor, single point]
COc1cccc(N/N=C/c2cccc(Br)c2O)c1	inconclusive: 14.1 µM [inhibitor, single point]
COc1cc(SC)ccc1C(=O)Nc1ccc2c(c1)CCN2S(C)(=O)=O	inconclusive: 12.6 µM [activator, partial curve]

Retrieved by compound from the entries so far:
SMILES	Potency
COc1cccc(N/N=C/c2cccc(Br)c2O)c1	inconclusive: 14.1 µM [inhibitor, single point]
CC(C)/C=N/Nc1nc(-c2ccc(Br)cc2)cs1	inconclusive: 11.2 µM [inhibitor, single point]
